For some assays here: A negative result means that nothing was seen under these conditions. For some assays here: Protein sequences can lack the tags named with them.
Key:
Experiment in all cases: enzyme inhibition
[1] = molecular target: bovine trypsin (Bos taurus (bovine)) (UniProt P00760); conditions: commercial protein, single-stranded DNA
[2] = molecular target: T1, cathepsin G (Homo sapiens (human)) (UniProt P08311); conditions: 50x molar excess aptamer, commercial protein, single-stranded DNA
T1 sequence (looked up, limits assumed): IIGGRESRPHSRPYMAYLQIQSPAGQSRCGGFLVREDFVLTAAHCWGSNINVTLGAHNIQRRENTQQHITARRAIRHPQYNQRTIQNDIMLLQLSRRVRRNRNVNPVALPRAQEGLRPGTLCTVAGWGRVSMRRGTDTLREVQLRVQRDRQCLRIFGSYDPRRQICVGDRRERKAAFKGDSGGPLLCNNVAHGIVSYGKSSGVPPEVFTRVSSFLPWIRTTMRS

[3] = molecular target: porcine trypsin (Sus scrofa (porcine)) (UniProt P00761); conditions: 50x molar excess aptamer, commercial protein, single-stranded DNA
[4] = tested on: plasmin (Homo sapiens (human)); conditions: 50x molar excess aptamer, commercial protein, single-stranded DNA
[5] = tested on: thrombin (Homo sapiens (human)); conditions: 50x molar excess aptamer, commercial protein, single-stranded DNA
[6] = molecular target: T2, neutrophil elastase (Homo sapiens (human)) (UniProt P08246); conditions: 50x molar excess aptamer, commercial protein, single-stranded DNA
T2 sequence (looked up, limits assumed): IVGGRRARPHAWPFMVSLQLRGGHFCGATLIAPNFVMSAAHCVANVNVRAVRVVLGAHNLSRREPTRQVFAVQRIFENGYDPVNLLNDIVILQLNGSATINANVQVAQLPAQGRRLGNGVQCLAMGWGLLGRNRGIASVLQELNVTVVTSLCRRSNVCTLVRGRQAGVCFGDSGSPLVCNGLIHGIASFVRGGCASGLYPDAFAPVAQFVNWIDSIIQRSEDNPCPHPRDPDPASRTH

[7] = molecular target: pancreatic elastase (Sus scrofa (porcine)) (UniProt P00772); conditions: 50x molar excess aptamer, commercial protein, single-stranded DNA
[8] = inhibition unaffected, letters put together from the description
[9] = BAPNA, label: 5'-biotin in binding assays
[10] = label: 5'-biotin in binding assays

“CATGCTTCCCCAGGGAGATGGGTGTGAGGTTAGTTTGCGGGAACTAGAATTCCTGGCAAAGGGGGGCCTGGAGGAACATG [T24 delta i]”: binds [1, 8].

“CATGCTTCCCCAGGGAGATGGGTGTGAGGTTAGGAAATCTGTGTTGAACACTGCTTTCAGGGGGCTTGGGAGGAACATGCGTCGCAAAC [T22]”: binds [1, 9].

“CATGCTTCCCCAGGGAGATGACGCACATGTGGTTTTTAGACGGGCGTCCTGTGATGGGAGCGGGGTTAGGGAGGAACATGCGTCGCAAAC [T3]”: binds [1, 9].

“CATGCTTCCCCAGGGAGATGGGTGTGAGGTTAGTTTGCGGGAACTAGAATTCCTGGCAAAGGGGGGCCTGGAGGAACATGCGTCGCAAAC [T24]”: no binding [2, 10]; no binding [3, 10]; no binding [4, 10]. “CATGCTTCCCCAGGGAGATGGGTGTGAGGTTAGTTTGCGGGAACTAGAATTCCTGGCAAAGGGGGGCCTGGAGGAACATGCGTCGCAAAC [T24]”: no binding [5, 10]; no binding [6, 10]; no binding [7, 10].

“CAGGGAGATGGGTGTGAGGTTAGTTTGCGGGAACTAGAATTCCTGGCAAAGGGGGGCCTGGAGGAACATGCGTCGCAAAC [T24 delta a]”: binds [1, 8].

“CATGCTTCCCCAGGGAGATGGGTGTGAGGTTAGTTTGCGGTCCTGGCAAAGGGGGGCCTGGAGGAACATG [T59]”: no binding [2]; no binding [3]; no binding [4]. “CATGCTTCCCCAGGGAGATGGGTGTGAGGTTAGTTTGCGGTCCTGGCAAAGGGGGGCCTGGAGGAACATG [T59]”: no binding [5]; no binding [6]; no binding [7].

“CATGCTTCCCCAGGGAGATGGGTGTGGGGTTAGGTCACTTTATGGTTGGTTCCATTGTGTCAGGGAGCCGGGAGGAACATGCGTCGCAAAC [T21]”: binds [1, 9].

From paper PMC6366424
